Data taken from doi:10.64898/2025.12.26.696631.
These are yes or no findings as the source states them, for the method shown. Binding seen in cells or lysates may run through a third protein. Some entries that bind do so weakly or less than the wild type. Tags and fused reporters may be left off the sequences shown.

Chains of the proteins cited; added tags and fusions are not shown. Residues count along the entry.
UniProt Q9NZQ7, residues 19-290: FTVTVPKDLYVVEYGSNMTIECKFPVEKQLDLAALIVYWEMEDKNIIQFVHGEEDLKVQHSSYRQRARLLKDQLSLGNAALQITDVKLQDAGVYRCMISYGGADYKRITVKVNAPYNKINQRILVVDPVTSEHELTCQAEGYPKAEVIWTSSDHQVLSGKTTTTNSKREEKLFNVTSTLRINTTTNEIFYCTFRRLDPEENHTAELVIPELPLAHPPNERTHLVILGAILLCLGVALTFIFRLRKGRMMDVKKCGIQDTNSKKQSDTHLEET

Molecular target: T1, HA-tagged ZDHHC11 (UniProt Q9H8X9)
T1 sequence: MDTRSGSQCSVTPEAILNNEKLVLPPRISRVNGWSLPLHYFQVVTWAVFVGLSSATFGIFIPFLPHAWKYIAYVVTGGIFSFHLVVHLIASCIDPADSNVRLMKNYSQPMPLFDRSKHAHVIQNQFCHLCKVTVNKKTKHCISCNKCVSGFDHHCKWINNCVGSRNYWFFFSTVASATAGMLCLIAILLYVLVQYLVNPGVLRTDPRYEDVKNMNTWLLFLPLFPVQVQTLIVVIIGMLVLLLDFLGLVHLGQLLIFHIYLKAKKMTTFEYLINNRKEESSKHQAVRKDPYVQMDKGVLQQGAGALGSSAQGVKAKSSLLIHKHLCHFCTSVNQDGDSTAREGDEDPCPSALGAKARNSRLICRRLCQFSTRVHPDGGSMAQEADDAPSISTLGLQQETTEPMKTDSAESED
Test: co-IP

programmed cell death ligand 1 (PD-L1) (from UniProt Q9NZQ7 19-290)
binding: binds
